Experimental data as given in patent US20080044360A1.
Results are given in words; binding and its absence hold for the method and conditions named. Some entries that bind do so weakly or less than the wild type.

Protein sequences, listed by entry. Tags and fused reporters are not part of them. Residues count along the entry.
UniProt P02461, residues 154-1221: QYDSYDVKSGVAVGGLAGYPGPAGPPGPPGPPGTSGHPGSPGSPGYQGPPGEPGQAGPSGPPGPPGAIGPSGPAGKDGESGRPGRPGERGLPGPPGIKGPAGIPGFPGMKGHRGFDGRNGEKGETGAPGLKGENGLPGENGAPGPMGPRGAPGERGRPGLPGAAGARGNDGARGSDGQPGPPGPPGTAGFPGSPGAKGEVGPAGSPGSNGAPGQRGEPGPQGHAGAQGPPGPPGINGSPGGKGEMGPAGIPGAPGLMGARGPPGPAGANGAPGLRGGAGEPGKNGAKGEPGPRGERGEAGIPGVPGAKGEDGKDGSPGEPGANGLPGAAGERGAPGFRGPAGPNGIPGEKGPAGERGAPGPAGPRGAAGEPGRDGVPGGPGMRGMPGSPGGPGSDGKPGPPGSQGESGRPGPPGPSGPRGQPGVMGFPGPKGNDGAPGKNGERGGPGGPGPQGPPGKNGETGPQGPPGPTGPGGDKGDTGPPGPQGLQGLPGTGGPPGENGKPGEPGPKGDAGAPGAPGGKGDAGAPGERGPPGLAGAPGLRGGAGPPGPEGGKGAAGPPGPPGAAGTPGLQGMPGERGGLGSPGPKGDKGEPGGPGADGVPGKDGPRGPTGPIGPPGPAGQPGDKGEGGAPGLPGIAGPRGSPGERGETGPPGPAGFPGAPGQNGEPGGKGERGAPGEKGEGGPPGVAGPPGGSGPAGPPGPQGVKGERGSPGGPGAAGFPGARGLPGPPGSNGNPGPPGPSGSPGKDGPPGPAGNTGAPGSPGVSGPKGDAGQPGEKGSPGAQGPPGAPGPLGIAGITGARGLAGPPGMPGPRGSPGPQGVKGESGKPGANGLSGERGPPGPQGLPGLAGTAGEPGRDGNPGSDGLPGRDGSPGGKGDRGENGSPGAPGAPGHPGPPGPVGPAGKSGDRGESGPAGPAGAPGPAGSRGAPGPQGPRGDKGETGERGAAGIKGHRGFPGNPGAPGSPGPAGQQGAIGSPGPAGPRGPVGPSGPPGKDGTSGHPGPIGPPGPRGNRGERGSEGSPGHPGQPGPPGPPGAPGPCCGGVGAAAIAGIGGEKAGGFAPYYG
UniProt P02458, residues 182-1241: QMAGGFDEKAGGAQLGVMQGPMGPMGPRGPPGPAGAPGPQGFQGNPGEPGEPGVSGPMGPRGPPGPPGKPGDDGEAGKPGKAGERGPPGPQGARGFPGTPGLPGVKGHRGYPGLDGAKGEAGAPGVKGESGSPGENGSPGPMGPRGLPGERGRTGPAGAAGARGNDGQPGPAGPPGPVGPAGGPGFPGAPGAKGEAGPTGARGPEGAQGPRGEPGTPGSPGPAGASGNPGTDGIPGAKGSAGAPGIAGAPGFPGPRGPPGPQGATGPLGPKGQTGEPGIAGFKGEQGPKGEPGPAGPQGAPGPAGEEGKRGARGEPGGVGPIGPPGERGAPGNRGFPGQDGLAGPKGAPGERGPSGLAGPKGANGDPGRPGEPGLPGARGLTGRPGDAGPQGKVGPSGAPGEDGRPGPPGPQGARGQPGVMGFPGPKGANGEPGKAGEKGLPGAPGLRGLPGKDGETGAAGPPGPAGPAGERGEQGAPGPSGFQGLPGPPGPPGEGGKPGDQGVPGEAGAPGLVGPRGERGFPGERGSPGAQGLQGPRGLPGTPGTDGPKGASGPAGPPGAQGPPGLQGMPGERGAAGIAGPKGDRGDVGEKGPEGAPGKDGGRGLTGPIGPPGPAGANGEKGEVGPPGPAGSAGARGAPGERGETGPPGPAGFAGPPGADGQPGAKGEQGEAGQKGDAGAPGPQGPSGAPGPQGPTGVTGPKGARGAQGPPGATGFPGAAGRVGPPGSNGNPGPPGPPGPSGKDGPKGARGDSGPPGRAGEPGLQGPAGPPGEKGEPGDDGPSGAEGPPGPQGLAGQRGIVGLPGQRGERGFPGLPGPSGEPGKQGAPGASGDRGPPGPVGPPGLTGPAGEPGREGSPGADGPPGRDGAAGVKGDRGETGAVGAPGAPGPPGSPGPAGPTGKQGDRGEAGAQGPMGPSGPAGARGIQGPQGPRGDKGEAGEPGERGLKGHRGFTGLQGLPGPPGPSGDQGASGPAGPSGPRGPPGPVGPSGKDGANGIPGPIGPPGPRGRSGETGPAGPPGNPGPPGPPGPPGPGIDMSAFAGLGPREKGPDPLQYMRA

Columns and labels:
[1] = molecular target: Type III human collagen (human) (UniProt P02461); assay: competition in the dried collagen assay
[2] = molecular target: Type II human collagen (human) (UniProt P02458); assay: competition in the dried collagen assay

B1: Compound ID 1014 (peptide)
peptide: KKWHCYTYFPHHYCVYG
modifications: N-terminal Gd^D; K(Gd^D) 1, 2
With B1 the binding [1] was “binds” and the binding [2] was “binds”.
